This continues a long series; more values of the same kind are listed elsewhere.
System: KBM7 WT cells (global proteome)
Assay: Quantitative expression proteomics (TMT isobaric tagging), drug vs DMSO
Format: cell-based, human
Text: The mechanism by which the assayed molecules re-program a functional CRL4B complex based on the data shown could be that drug binding to CUL4B recruits a neo-substrate directly to the cullin backbone. Alternatively, drug binding could stabilize CUL4B function to boost time intervals where a functionally competent CUL4B complexes can be formed. Here, the word “functional” implies that the CUL4B backbone of this complex needs to be neddylated, and a CUL4B associated E2 ubiquitin-conjugating enzyme (UBE2G1) needs to be bound. FIG. 9 outlines one possible mechanism. Both predicted mechanisms of action would result in a functionally altered CRL4B complex, and thus an altered stability of drug-induced (neo-) substrates. In order to identify target proteins with a decreased abundance or, in other words, target proteins that become degraded by CRL4B after drug treatment, global proteome composition was measured using quantitative expression proteomics (TMT-labeling). In brief, KBM7 cells were drug treated for 12 hours, lysed, and subjected to isobaric tagging. Ensuing proteomics analysis quantified a total of 7,903 proteins at a minimum spectral count of 2. […] Data on essentiality are taken from Hart et al., G3, August 2017 (PMID: 28655737).
50×10^6 KBM7^WT cells per condition were collected, washed four times with ice-cold PBS, the supernatant aspirated and pellets snap-frozen in liquid N2. Each washed cell pellet was lysed separately in 40 μL of freshly prepared lysis buffer as previously described (see Mayor-Ruiz et al., Mol Cell 2019)
Offline Fractionation via RP-HPLC at high pH and 2D-RP/RP Liquid Chromatography Mass Spectrometry were performed as previously described (see Mayor-Ruiz et al., Mol Cell 2019).
Acquired raw data files were processed using the Proteome Discoverer 2.2.0 platform, utilizing the Sequest HT database search engine and Percolator validation software node (V3.04) to remove false positives with a false discovery rate (FDR) of 1% on peptide and protein level under strict conditions. Searches were performed with full tryptic digestion against the human SwissProt database v2017.06 with up to two allowed miscleavage sites. Oxidation (+15.9949 Da) of methionine was set as variable modification, whilst carbamidomethylation (+57.0214 Da) of cysteine residues and TMT 6-plex labelling of peptide N-termini and lysine residues were set as fixed modifications. Data was searched with mass tolerances of ±10 ppm and ±0.02 Da on the precursor and fragment ions, respectively. Results were filtered to include peptide spectrum matches (PSMs) with Sequest HT cross-correlation factor (Xcorr) scores of […] and high peptide confidence assigned by Percolator. MS^2 signal-to-noise values (S/N) values of TMT reporter ions were used to estimate peptide/protein abundance changes. PSMs with precursor isolation interference values of ≥ 50% and average TMT-reporter ion S/N≤10 were excluded from quantitation. Only unique peptides were used for TMT quantitation as well as for TOP3 label-free quantitation. Isotopic impurity correction and TMT channel-normalization based on total peptide amount were applied. For statistical analysis and p-value calculation, the integrated ANOVA hypothesis test was used. TMT ratios with p-values below 0.01 were considered as significant. Only proteins with >1 peptide detected and >1 unique peptide detected were considered for further analysis. For the calling of destabilized proteins, a log 2 fold change threshold (drug/DMSO) of −0.3 was applied.
Comparison of overall proteome-wide changes in KBM7 cells treated with IC020772.1 (2.5 μM), IC021313.2 (7 μM) or T6938051 (3.5 μM) for 5 h and 12h, using quantitative proteomics based on isobaric tagging.
The protein names in Table 4, Table 5 and Table 6 refer to the protein names as provided by HUGO Gene Nomenclature Committee (HGNC) database. […]

SMILES: O=C(CSc1nnc2c(n1)[nH]c1ccccc12)Nc1ccc(Cl)cn1 [IC020772.1]
- log2FC (IC020772.1/DMSO) (ABHD15 (Q6UXT9)): −0.3364
- log2FC (IC020772.1/DMSO) (ACTR3B (Q9P1U1-1)): −0.3201
- log2FC (IC020772.1/DMSO) (ACTR8 (Q9H981-1)): −0.364
- log2FC (IC020772.1/DMSO) (ADAM22 (Q9P0K1-1)): −0.3715
- log2FC (IC020772.1/DMSO) (AGGF1 (Q8N302-1)): −0.662
- log2FC (IC020772.1/DMSO) (AKIRIN2 (Q53H80)): −1.466
- log2FC (IC020772.1/DMSO) (ALKBH1 (Q13686)): −0.4422
- log2FC (IC020772.1/DMSO) (AMD1 (P17707-1)): −0.8211
- log2FC (IC020772.1/DMSO) (ANKRD12 (Q6UB98-1)): −0.3364
- log2FC (IC020772.1/DMSO) (ANKRD40 (Q6AI12)): −0.4403
- log2FC (IC020772.1/DMSO) (ANKS3 (Q6ZW76-1)): −0.4442
- log2FC (IC020772.1/DMSO) (AP5B1 (Q2VPB7)): −0.3401
- log2FC (IC020772.1/DMSO) (APPBP2 (Q92624)): −1.165
- log2FC (IC020772.1/DMSO) (ARL11 (Q969Q4)): −0.6804
- log2FC (IC020772.1/DMSO) (ARL13B (Q3SXY8-1)): −0.6781
- log2FC (IC020772.1/DMSO) (ARVCF (O00192-1)): −0.6712
- log2FC (IC020772.1/DMSO) (ATAD2 (Q6PL18-1)): −0.4461
- log2FC (IC020772.1/DMSO) (ATF6B (Q99941-1)): −0.699
- log2FC (IC020772.1/DMSO) (ATF7 (P17544-6)): −0.9434
- log2FC (IC020772.1/DMSO) (BAIAP2 (Q9UQB8-1)): −0.4093
- log2FC (IC020772.1/DMSO) (BCL7A (Q4VC05-1)): −0.3346
- log2FC (IC020772.1/DMSO) (BIN3 (Q9NQY0-1)): −0.4016
- log2FC (IC020772.1/DMSO) (BORA (Q6PGQ7-1)): −0.8468
- log2FC (IC020772.1/DMSO) (BRCA1 (P38398-7)): −0.4383
- log2FC (IC020772.1/DMSO) (BUB1 (O43683-1)): −0.8916
- log2FC (IC020772.1/DMSO) (BUB1B (O60566-3)): −0.7084
- log2FC (IC020772.1/DMSO) (C2CD3 (Q4AC94-5)): −0.4461
- log2FC (IC020772.1/DMSO) (C5orf51 (A6NDU8)): −0.4055
- log2FC (IC020772.1/DMSO) (C9orf40 (Q8IXQ3)): −0.6643
- log2FC (IC020772.1/DMSO) (CALCOCO2 (Q13137-4)): −0.8186
- log2FC (IC020772.1/DMSO) (CCDC14 (Q49A88-1)): −0.3978
- log2FC (IC020772.1/DMSO) (CD37 (P11049-1)): −0.3383
- log2FC (IC020772.1/DMSO) (CD55 (P08174-7)): −0.3437
- log2FC (IC020772.1/DMSO) (CD99L2 (Q8TCZ2-1)): −0.3715
- log2FC (IC020772.1/DMSO) (CD151 (P48509)): −0.48
- log2FC (IC020772.1/DMSO) (CDC123 (O75794)): −0.8314
- log2FC (IC020772.1/DMSO) (CDCA7L (Q96GN5-1)): −0.4131
- log2FC (IC020772.1/DMSO) (CDK5RAP2 (Q96SN8-1)): −0.4521
- log2FC (IC020772.1/DMSO) (CEBPA (P49715-4)): −0.3978
- log2FC (IC020772.1/DMSO) (CEP44 (Q9C0F1-2)): −0.364
- log2FC (IC020772.1/DMSO) (CEP55 (Q53EZ4-1)): −0.6735
- log2FC (IC020772.1/DMSO) (CEP76 (Q8TAP6-1)): −0.3401
- log2FC (IC020772.1/DMSO) (CETN3 (O15182)): −0.6735
- log2FC (IC020772.1/DMSO) (CFAP97 (Q9P2B7-1)): −1.168
- log2FC (IC020772.1/DMSO) (CHAC2 (Q8WUX2)): −0.3659
- log2FC (IC020772.1/DMSO) (CHAF1A (Q13111-1)): −0.4131
- log2FC (IC020772.1/DMSO) (CHKA (P35790-1)): −0.4521
- log2FC (IC020772.1/DMSO) (CHRDL1 (Q9BU40-4)): −0.8186
- log2FC (IC020772.1/DMSO) (CHST11 (Q9NPF2-1)): −0.4481
- log2FC (IC020772.1/DMSO) (CHTOP (Q9Y3Y2-3)): −0.6897
- log2FC (IC020772.1/DMSO) (CHURC1 (Q8WUH1-1)): −0.6666
- log2FC (IC020772.1/DMSO) (CLSPN (Q9HAW4-1)): −0.7131
- log2FC (IC020772.1/DMSO) (CLTA (P09496-2)): −0.3733
- log2FC (IC020772.1/DMSO) (CMIP (Q8IY22-1)): −0.3346
- log2FC (IC020772.1/DMSO) (CNKSR2 (Q8WXI2-1)): −0.8009
- log2FC (IC020772.1/DMSO) (CNOT2 (Q9NZN8-1)): −0.4383
- log2FC (IC020772.1/DMSO) (COA5 (Q86WW8)): −0.9187
- log2FC (IC020772.1/DMSO) (COA7 (Q96BR5)): −0.4093
- log2FC (IC020772.1/DMSO) (COX19 (Q49B96)): −0.3733
- log2FC (IC020772.1/DMSO) (CREB1 (P16220-1)): −0.3677
- log2FC (IC020772.1/DMSO) (CRIPT (Q9P021)): −0.963
- log2FC (IC020772.1/DMSO) (CRY2 (Q49AN0-1)): −0.3997
- log2FC (IC020772.1/DMSO) (CTNNBIP1 (Q9NSA3)): −0.4442
- log2FC (IC020772.1/DMSO) (CXorf38 (Q8TB03-1)): −0.3346
- log2FC (IC020772.1/DMSO) (CXorf56 (Q9H5V9-1)): −0.3401
- log2FC (IC020772.1/DMSO) (DAPK1 (P53355-3)): −0.3959
- log2FC (IC020772.1/DMSO) (DCAF1 (Q9Y4B6-1)): −0.4112
- log2FC (IC020772.1/DMSO) (DCAF12 (Q5T6F0)): −0.881
- log2FC (IC020772.1/DMSO) (DCLREIA (Q6PJP8)): −0.3383
- log2FC (IC020772.1/DMSO) (DEAFI (O75398-1)): −0.4383
- log2FC (IC020772.1/DMSO) (DHDDS (Q86SQ9-2)): −0.3419
- log2FC (IC020772.1/DMSO) (DHRS2 (Q13268-2)): −0.3696
- log2FC (IC020772.1/DMSO) (DHX32 (Q7L7V1-1)): −0.48
- log2FC (IC020772.1/DMSO) (DIXDC1 (Q155Q3-1)): −0.9024
- log2FC (IC020772.1/DMSO) (DMAC2 (Q9NW81-4)): −0.4016
- log2FC (IC020772.1/DMSO) (DNAJC25 (Q9H1X3-1)): −0.4055
- log2FC (IC020772.1/DMSO) (DOPEYI (Q5JWR5)): −0.3419
- log2FC (IC020772.1/DMSO) (E2F3 (O00716-1)): −0.6873
- log2FC (IC020772.1/DMSO) (EAPP (Q56P03)): −0.3978
- log2FC (IC020772.1/DMSO) (EEF1E1 (O43324-1)): −0.3997
- log2FC (IC020772.1/DMSO) (EEF2K (O00418)): −0.4016
- log2FC (IC020772.1/DMSO) (EIF4H (Q15056-1)): −0.3383
- log2FC (IC020772.1/DMSO) (ELF4 (Q99607)): −0.6827
- log2FC (IC020772.1/DMSO) (ENDOG (Q14249)): −0.4779
- log2FC (IC020772.1/DMSO) (ESCO2 (Q56NI9-1)): −0.9051
- log2FC (IC020772.1/DMSO) (FADD (Q13158)): −0.4521
- log2FC (IC020772.1/DMSO) (FADS2 (O95864-1)): −1.582
- log2FC (IC020772.1/DMSO) (FAM53B (Q14153-1)): −0.3201
- log2FC (IC020772.1/DMSO) (FAM92A (A1XBS5-1)): −0.9159
- log2FC (IC020772.1/DMSO) (FAM124B (Q9H5Z6-1)): −0.4461
- log2FC (IC020772.1/DMSO) (FAM136A (Q96C01)): −0.4131
